Measured values taken from the supplement of paper PMC12889115.
The other results are listed elsewhere or left out. Values are raw readings; no control value is given beside them.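 Primary screen: polymyxin B was added at a level permeabilizing Salmonella outer membranes while sparing inner membranes. DMSO wells, both with and without polymyxin B, established maximum growth. Plate-to-plate variation meant each plate was ranked on its own, and the lowest-OD600 compounds were selected as hits.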

Test system: Salmonella enterica serovar Typhimurium SL1344
Test: bacterial growth OD600 after 18 h with compound and polymyxin B; higher = more bacterial growth (less inhibition)
Settings: 50 µM, Mueller-Hinton broth

| SMILES | bacterial growth OD600 (polymyxin B 1 µg/mL) | bacterial growth OD600 (polymyxin B 0.75 µg/mL) |
| --- | --- | --- |
| Cc1ccc(C(=O)N2CCCC(Nc3ccc(F)cc3)C2)cc1 (stereo unspecified) | 0.75 |  |
| CC(C)N(Cc1nccn1C)C(=O)C1CCC(=O)N(CCCN2CCOCC2)C1 (stereo unspecified) | 0.971 |  |
| CC(C)Oc1cccc(C(=O)C2CCCN(Cc3cccn3-c3nccs3)C2)c1 (stereo unspecified) | 0.699 |  |
| O=C(c1ccc(Cl)cc1)N1CCOc2ccc(CN3CCN(c4ccccc4)CC3)cc2C1 |  | 0.005 |
| CN(Cc1ccncn1)C(=O)CC(c1cccc(O)c1)c1cccc(Cl)c1 (stereo unspecified) | 0.757 |  |
| COc1cc(N2CCCC(CCC(=O)N(C)CCc3ccccn3)C2)nc(OC)n1 (stereo unspecified) | 0.978 |  |
| COCCCC1CCN(Cc2c[nH]nc2-c2cccc3ccccc23)CC1 | 0.959 |  |
| Cc1cccc(CNC(=O)c2coc(COc3ccccc3)n2)c1 |  | 0.005 |
| CC(C)Oc1ccc(CN2CCC(CO)(Cc3ccccc3Cl)CC2)cc1CO | 0.902 |  |
| Cn1c(C2CCC2)nc2cc(C(=O)NCc3cccc(-n4cccn4)c3)cc(NC(=O)C3CCCO3)c21 (stereo unspecified) |  | 0.839 |
| COc1ccc(NC(=O)CCC2CCCN(C(=O)c3cc(OC)ccc3OC)C2)c(C)c1 (stereo unspecified) | 1.04 |  |
| CN(C)c1ncc2c(n1)CCCC2NC(=O)CCc1cnccn1 (stereo unspecified) | 1.11 |  |
| CCCc1cc(C(=O)N2CCC3(CC2)c2ccccc2[C@@H](NC(=O)C(C)C)[C@@H]3OCCOC)n(C)n1 |  | 0.778 |
| COc1cccc(CC2=NOC(C(=O)NCc3ccc(C(F)(F)F)cc3F)C2)c1 (stereo unspecified) |  | 0.962 |
| CCC1C(=O)NCCN1C(=O)c1csc2nc(-c3ccc(F)cc3)cn12 (stereo unspecified) | 1.11 |  |
| Cc1csc(SCC(=O)NCc2cccnc2Oc2ccccc2)n1 | 0.871 |  |

Complete entries from above:
`CCCc1cc(C(=O)N2CCC3(CC2)c2ccccc2[C@@H](NC(=O)C(C)C)[C@@H]3OCCOC)n(C)n1` is listed with bacterial growth OD600 (polymyxin B 0.75 µg/mL): 0.778
`CN(Cc1ccncn1)C(=O)CC(c1cccc(O)c1)c1cccc(Cl)c1` (stereo unspecified) is listed with bacterial growth OD600 (polymyxin B 1 µg/mL): 0.757

The list continues:

| SMILES | bacterial growth OD600 (polymyxin B 1 µg/mL) | bacterial growth OD600 (polymyxin B 0.75 µg/mL) |
| --- | --- | --- |
| Cc1ccc2nc(C)cc(C(=O)N3CCC4(CC3)CC4C(=O)NCC3(c4ccccc4)CCCC3)c2c1 (stereo unspecified) |  | 0.762 |
| Cc1ccccc1CC(C1CCN(C(=O)c2ccc3[nH]ccc3c2)CC1)N(C)C(=O)Cn1cccn1 (stereo unspecified) |  | 0.758 |
| O=C(CCc1ccccc1)Nc1ccc(N2CCC(NCc3ccc4ncccc4c3)CC2)cc1 |  | 0.836 |
| CCC1CN(Cc2ccc(OC)cc2OC)Cc2cc(OC)ccc2O1 (stereo unspecified) |  | 0.73 |
| Cc1nc(CC(=O)N2CCCC(CCC(=O)NCc3ccccc3Cl)C2)cs1 (stereo unspecified) | 1.11 |  |
| COc1ccc(CCC2CCCN(C(=O)c3cc(C)on3)C2)cc1 (stereo unspecified) |  | 0.44 |
| O=C(CCC1CCCN(C(=O)c2ccsc2)C1)NC1CC1 (stereo unspecified) |  | 0.823 |
| CCCS(=O)(=O)NCc1nc(NCCCc2ccccc2)c2ccccc2n1 |  | 0.795 |
| CC(=O)c1cccc(OCc2cc(C(=O)NCC(F)(F)F)n[nH]2)c1 | 1.2 |  |
| Cc1ncc2c(c1CNC(=O)c1ccc3c(c1)OCO3)CCN(C(=O)c1cc(Cl)ccc1F)C2 |  | 0.656 |
| CC(C)(C)C(=O)Nc1ccnn1C1CCN(C(=O)c2ccccc2-c2ncc[nH]2)CC1 | 1.06 |  |
| CC1CCCN(Cc2c(C(=O)N3CCN(C4CCCCC4)CC3)nc3ccccn23)C1 (stereo unspecified) | 1.05 |  |
| Cc1nn(C)c(Cl)c1CN1CCC(O)(Cc2cc(-c3ccccc3)no2)CC1 |  | 0.964 |
| Cn1cc(CNc2ccc(C(=O)N3CCC(Cn4cccn4)CC3)cn2)cn1 | 1.14 |  |
| O=C(NCCc1cccnc1)C1CCC(=O)N(CCCc2ccccc2)C1 (stereo unspecified) | 1.33 |  |
